{
  "source": "paper PMC3303803",
  "about": "“Identification of the First Functional Toxin-Antitoxin System in Streptomyces” (PLoS ONE, 2012)",
  "target": "T1, S. lividans toxin YoeB-His6sl (Streptomyces lividans) (UniProt Q9Z4V8)",
  "T1 sequence": "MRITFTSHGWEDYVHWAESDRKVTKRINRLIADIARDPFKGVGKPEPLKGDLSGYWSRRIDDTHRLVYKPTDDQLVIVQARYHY",
  "experiment": "co-purification on NTA-Ni resin",
  "note": "These are yes or no findings as the source states them, for the method shown. Some binding calls cover weakened binding; strength is not graded here. Sequences can lack the tags named with a protein.",
  "data": [
    {"binder": "S. lividans antitoxin YefMsl (untagged, co-expressed with YoeB-His6sl from pET22b-TA) (protein, UniProt Q9Z4V7 1-87) MSITASEARQNLFPLIEQVNEDHAPVHITSRKGNAVLMSEEDFTAWTETVHLLRSPRNARRLLDSIAEAEAGDATEHDLIDPDAERA", "values": [
      {"measurement": "binding", "result": "binds"}
    ]}
  ]
}
